Earlier results in patent US20160310581A1, “ADAM10 INHIBITION TO TREAT FRAGILE X SYNDROME” (VIB VZW, priority 2013, published 2016).
For at least one compound, name, drawing or mass did not settle the structure.

Sequences of proteins named here, by UniProt entry; tags and fusion partners are left off. Residues count along the entry.
UniProt P41245, 108-730: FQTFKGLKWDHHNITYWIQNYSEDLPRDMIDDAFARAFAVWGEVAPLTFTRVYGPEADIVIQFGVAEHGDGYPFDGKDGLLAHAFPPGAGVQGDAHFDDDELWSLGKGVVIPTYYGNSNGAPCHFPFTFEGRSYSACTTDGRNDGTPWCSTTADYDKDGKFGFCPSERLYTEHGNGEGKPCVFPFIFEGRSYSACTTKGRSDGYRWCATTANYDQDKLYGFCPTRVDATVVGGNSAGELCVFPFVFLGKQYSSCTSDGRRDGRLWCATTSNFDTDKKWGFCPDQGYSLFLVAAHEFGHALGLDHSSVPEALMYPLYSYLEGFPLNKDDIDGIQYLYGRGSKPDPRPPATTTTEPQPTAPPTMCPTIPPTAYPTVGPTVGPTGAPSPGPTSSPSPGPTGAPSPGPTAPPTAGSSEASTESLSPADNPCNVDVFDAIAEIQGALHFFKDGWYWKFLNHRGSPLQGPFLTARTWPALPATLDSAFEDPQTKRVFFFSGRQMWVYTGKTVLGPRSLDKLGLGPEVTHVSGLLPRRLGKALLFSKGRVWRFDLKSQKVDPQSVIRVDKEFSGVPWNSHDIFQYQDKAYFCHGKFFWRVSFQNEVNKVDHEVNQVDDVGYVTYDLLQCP

Legend:
Fmr1 KO mice = settings: newborn Fmr1 KO mice; Bilousova et al., 2008; cited from earlier work
MMP-9 = MMP-9 (Mus musculus, UniProt P41245); settings: cited from earlier work

CN(C)c1ccc(O)c2c1C[C@H]1C[C@H]3[C@H](N(C)C)C(O)=C(C(N)=O)C(=O)[C@@]3(O)C(O)=C1C2=O [minocycline]
anxiety (Fmr1 KO mice): improvement in anxiety | dendritic spine deficits (Fmr1 KO mice): rescue of the dendritic spine deficits | MMP-9 activity (MMP-9): reduces excess of MMP-9 activity
